Test results reported in PubChem BioAssay AID540276 (National Center for Advancing Translational Sciences (NCATS), 2011).
About 5,400 (1.8%) of roughly 300,000 compounds were called active. The inconclusive results got no clear call from the source; some entries with a clear call stand among them for comparison. Calls come from the whole dose curve; tested in HEK293 cells. Potencies beside an inconclusive call are fits to weak or partial responses and may not hold up.

test: qHTS for inhibitors of binding or entry into cells for Marburg Virus; details: Marburg virus pseudotyped entry inhibition, cell reporter; activity change, negative = inhibition: at 37.8 µM (top of the series) unless noted
% is set by controls: 0 for no effect and ±100 for the full control effect; potency is the fitted concentration of half-maximal effect.

Structure (SMILES)	Potency	activity change, negative = inhibition
COc1ccc(C(CCNCc2ccccc2F)c2ccc(F)cc2)cc1 (stereo not given)	inconclusive: 16.4 µM [inhibitor, single point]	–
Cc1ccc(S(=O)(=O)N2CCCCC2)cc1C(=O)OC1CCCCC1=O (stereo not given)	–	inactive: 8.85%
O=C(NCCN1CCCC1)C1COc2ccccc2O1 (stereo not given)	inconclusive: 5.62 µM [activator, single point]	–
N=c1c2c(-c3ccccc3)c(-c3ccccc3)n(Cc3ccccc3)c2ncn1CCCO	active: 5.8 µM	–
Cc1ccc(CNC(=O)c2nc(SCc3ccccc3C)ncc2Cl)cc1	–	inactive: 6.66% [at 46.1 µM]
COc1cc(NC(=O)c2ccccc2)c(OC)cc1NC(=O)Cc1ccc(Br)cc1	inconclusive: 14.1 µM [inhibitor, partial curve, poor fit]	–
CNC(=S)N1N=C(c2ccccc2)CC1c1ccccc1Cl (stereo not given)	inconclusive: 1.26 µM [inhibitor, full curve, poor fit]	–
C[C@@H]1O[C@@H](O[C@H]2C[C@@H](O)[C@]3(CO)[C@@H]4C(CC[C@]3(O)C2)[C@@]2(O)CC[C@H]([C@@H]3COC(=O)C3)[C@@]2(C)C[C@H]4O)[C@H](O)[C@H](O)[C@H]1O (stereo not given in full)	active: 0.82 µM	–
CCC(=O)Nc1cccc(-c2cn3ccsc3n2)c1	–	inactive: 3.99% [at 46.1 µM]
CC(=O)N1c2ccc(S(=O)(=O)N3CCC(C(=O)N4CCN(c5ccccc5F)CC4)CC3)cc2CC1C (stereo not given)	–	inactive: -28% [at 46.1 µM]
O=C1NC(=O)C(=Cc2ccc(Oc3ccc([N+](=O)[O-])cc3)cc2)C(=O)N1	–	inactive: -21.7%
Cc1cc(C)n2nc(C(=O)NCc3cccc(C(F)(F)F)c3)nc2n1	inconclusive: 3.98 µM [inhibitor, single point]	–
CCc1ccc2c(c1)C(c1ccc([N+](=O)[O-])cc1)=NNC(c1ccc(C)cc1)=N2	inconclusive: 1.58 µM [activator, partial curve, poor fit]	–
NS(=O)(=O)c1cccc(Nc2nc3ccccc3nc2NS(=O)(=O)c2ccc(Cl)cc2)c1	inconclusive: 35.5 µM [inhibitor, single point]	–
CCOc1cc(/C=C/C(=O)N(CC)CC(=O)NCc2cccs2)cc(Cl)c1OC	inconclusive: 7.08 µM [inhibitor, full curve, poor fit]	–
COc1ccc(-n2c(O)c(C=Nc3ccccc3)c3ccccc3c2=O)cc1	inconclusive: 6.31 µM [inhibitor, single point]	–
CCCCN1C(=O)c2ccc(C(=O)NCCN3C(=O)S/C(=C\c4cccnc4)C3=O)cc2C1=O	inconclusive: 0.316 µM [activator, partial curve, poor fit]	–
Cc1ccc2nc(-c3cccc(NC(=O)c4cccc5ccccc45)c3)oc2c1	–	inactive: -12.9% [at 46.1 µM]
CCCNC(=O)OC[C@@H]1O[C@H](CCO/N=C(\C)CCN2CCCc3nc(C)c(C)cc32)C=C[C@@H]1Oc1ccc(OC)cc1	inconclusive: 1.06 µM [inhibitor, full curve, poor fit]	–
COc1cc([N+](=O)[O-])ccc1NC(=O)CN(C)C	–	inactive: 6.76%
Cc1cccc(NS(=O)(=O)c2ccc(C3CCCCC3)cc2)c1	inconclusive: 23.1 µM [inhibitor, partial curve, poor fit]	–
CC1CCN(S(=O)(=O)c2ccc(C(=O)Nc3ncccc3O)cc2)CC1	inconclusive: 4.47 µM [activator, full curve, poor fit]	–
Cc1cc(C)nc(Nc2ccc(O)cc2)n1	–	inactive: -2.33% [at 46.1 µM]
CCOc1ccccc1NC(=O)N1CCC(n2nnc3cc(C)ccc32)CC1	inconclusive: 0.164 µM [inhibitor, full curve, poor fit]	–

One compound at a time, as listed above:
CNC(=S)N1N=C(c2ccccc2)CC1c1ccccc1Cl (stereo not given) as listed: Potency: inconclusive: 1.26 µM [inhibitor, full curve, poor fit]
COc1cc(NC(=O)c2ccccc2)c(OC)cc1NC(=O)Cc1ccc(Br)cc1 as listed: Potency: inconclusive: 14.1 µM [inhibitor, partial curve, poor fit]
CCCCN1C(=O)c2ccc(C(=O)NCCN3C(=O)S/C(=C\c4cccnc4)C3=O)cc2C1=O as listed: Potency: inconclusive: 0.316 µM [activator, partial curve, poor fit]
CC1CCN(S(=O)(=O)c2ccc(C(=O)Nc3ncccc3O)cc2)CC1 as listed: Potency: inconclusive: 4.47 µM [activator, full curve, poor fit]

(cont.)

Structure (SMILES)	Potency	activity change, negative = inhibition
COc1ccc(OCC(=O)NNc2c3ccccc3nc3ccccc23)cc1	inconclusive: 35.5 µM [inhibitor, single point]	–
Cc1ccc(C(=O)Nc2ccccc2C(=O)N2CCCCCC2)cc1	inconclusive: 2.82 µM [inhibitor, single point]	–
COCCNc1oc(/C=C/c2ccc(F)cc2)nc1C#N	inconclusive: 11.2 µM [activator, partial curve, poor fit]	–
C/C(CC(=O)Nc1ccccn1)=N\NC(=O)C(=O)Nc1cccc(Cl)c1C	–	inactive: 13%
COCCNC(=S)NN=C1CCC(c2ccccc2)CC1 (stereo not given)	–	inactive: -1.97% [at 46.1 µM]
CC1Cc2c([nH]c(=O)n(-c3ccccc3)c2=O)O1 (stereo not given)	inconclusive: 5.62 µM [inhibitor, single point]	–
CCOC(=O)N1CCC(NC(=O)c2cc3cc4cc(OC)ccc4nc3o2)CC1	inconclusive: 17.8 µM [inhibitor, partial curve, poor fit]	–
Cc1ccsc1C(=O)Nc1cccc(S(=O)(=O)N(C)C)c1	inconclusive: 35.5 µM [activator, single point]	–
NS(=O)(=O)c1cccc(NC(=O)CSc2ccccn2)c1	–	inactive: 15.7%
Cc1ccc(OCc2ccc(-c3nc(C#N)c(NCc4ccccc4Cl)o3)o2)cc1	–	inactive: -24.6% [at 46.1 µM]
Cc1cccc(N2CCN(C(=O)CCCOc3ccccc3)CC2)c1C	–	inactive: -30.7%
Cc1ccc2cc(CN(CCCN3CCOCC3)C(=O)NC3CCCCC3)c(=O)[nH]c2c1C	inconclusive: 29.1 µM [inhibitor, single point]	–
OC(CNCC(c1ccc(Cl)cc1Cl)c1c[nH]c2ccccc12)c1ccccc1 (stereo not given)	active: 7.94 µM	–
Cc1cccc(NC2=NC3(CCCCC3)N=C(N)N2)c1	inconclusive: 29.1 µM [inhibitor, single point]	–
COC(=O)c1ccccc1NC(=O)CCS(=O)(=O)c1ccc(Br)s1	inconclusive: 15.8 µM [activator, single point]	–
COc1ccc(NC(=O)COC(=O)c2cc(=O)c3ccccc3o2)cc1OC	–	inactive: 20.8%
NC(=S)Nc1ccc2cn[nH]c2c1	inconclusive: 6.31 µM [inhibitor, single point]	–
Cc1cccc2c(C(=O)N3CCN(C(=O)c4ccco4)CC3)cc(-c3cccc(Br)c3)nc12	inconclusive: 28.2 µM [inhibitor, single point]	–
COc1cc(-c2nnc(NC(=O)CS(=O)(=O)c3ccc(C)cc3)o2)cc(OC)c1OC	–	inactive: -1.91%
Cc1ccc(OC(=O)CN2C(=O)c3ccccc3C2=O)cc1C	–	inactive: 20.3% [at 46.1 µM]
Nc1c(-c2ccc(F)cc2)cnc2ncnn12	inconclusive: 1.16 µM [activator, single point]	–
c1ccc(-c2nc3ccccc3o2)nc1	inconclusive: 1.26 µM [activator, single point]	–
O=C(Nc1cccnc1)c1ccc2c(c1)OCO2	inconclusive: 0.146 µM [activator, full curve, poor fit]	–
CS(=O)(=O)c1ccc(Cl)c(NC(=O)CSc2nc3ccccc3c(=O)n2CCCN2CCOCC2)c1	–	inactive: -28.9%

Structure (SMILES)	Potency	activity change, negative = inhibition
CS(=O)(=O)Nc1cccc(C2=NN(S(=O)(=O)c3ccccc3)C(c3ccco3)C2)c1 (stereo not given)	–	inactive: 1.09%
COc1cc(-c2cc(C(=O)N(C)Cc3ccccc3)c3ccccc3n2)cc(OC)c1OC	inconclusive: 0.562 µM [inhibitor, full curve, poor fit]	–
CC(Sc1nnnn1C)C(=O)NC1CCCC1 (stereo not given)	inconclusive: 1.26 µM [inhibitor, single point]	–
c1ccc(-c2csc(NNC3=NCCCCC3)n2)cc1	inconclusive: 31.6 µM [inhibitor, single point]	–
Cc1onc(-c2ccccc2)c1C(=O)OCC(=O)c1ccccc1	inconclusive: 3.98 µM [activator, single point]	–
O=C(c1ccco1)N1CCN(CC(=O)N2c3ccccc3CCc3ccccc32)CC1	inactive	–
CC1(C)CC(=O)C(N=Nc2c(F)cccc2F)=C(O)C1	inconclusive: 14.1 µM [activator, single point]	–
O=C(Oc1cccc(/C=N/NC(=O)c2ccccn2)c1)c1ccc([N+](=O)[O-])cc1	–	inactive: -29.4%
CC(C)(C)c1ccc(C(=O)C2CCCN(C(=O)C3CCOCC3)C2)cc1 (stereo not given)	inconclusive: 6.31 µM [inhibitor, partial curve, poor fit]	–
CCCc1cc(C(=O)N2CCN(c3ccc(C(F)(F)F)cn3)CC2)sc1C	inconclusive: 35.5 µM [inhibitor, single point]	–
COc1cccc(-c2ncc3ccccn23)c1	inconclusive: 1.12 µM [activator, full curve, poor fit]	–
Cc1ccccc1OCc1nc(-c2ccc(NC(=O)c3cccs3)cc2)no1	inconclusive: 35.5 µM [inhibitor, single point]	–
CC(C)c1ccc(C(=O)Nc2ccc(CN3CCOCC3)cc2)cc1	inconclusive: 22.4 µM [inhibitor, partial curve, poor fit]	–
COc1ccccc1NC(=O)c1oc2ccccc2c1NC(=O)C1CCCCC1	–	inactive: -4.39% [at 46.1 µM]
COc1ccc(OC)c(-c2nc(CN3CCN(C(=O)c4ccco4)CC3)c(C)o2)c1	–	inactive: 10.8% [at 46.1 µM]
COc1ccc(/C(C)=N/NS(=O)(=O)c2cc(C)ccc2C)c(OC)c1	inconclusive: 28.2 µM [activator, single point]	–
O=C(c1ccc2nccnc2c1)N1CCN(Cc2ccc3c(c2)OCO3)CC1	inconclusive: 29.1 µM [activator, partial curve, poor fit]	–
O=C(Nc1ccccc1)/C(=C\c1ccncc1)NC(=O)c1ccccc1	inconclusive: 20.6 µM [activator, single point]	–
CNS(=O)(=O)c1cccc(C(=O)OCC(=O)Nc2ccc3ccccc3c2)c1	–	inactive: 5.2% [at 46.1 µM]
Cc1cc(=O)oc2cc(NC(=O)c3ccccc3C(=O)O)ccc12	–	inactive: 4.57%
CCOc1cccc(C(=O)Nc2nccs2)c1	–	inactive: -2.71% [at 46.1 µM]
CC1Oc2ccccc2N(CC(=O)N(Cc2ccccc2)Cc2ccccn2)C1=O (stereo not given)	inconclusive: 13 µM [inhibitor, partial curve, poor fit]	–
